In publication PMC3397946, “Identification and Characterization of the Cognate Anti-Sigma Factor and Specific Promoter Elements of a T. tengcongensis ECF Sigma Factor”:
These are yes or no findings as the source states them, for the method shown. Binding calls can cover weak binding; strength is not graded here.

Chains of the proteins cited; added tags and fusions are not shown. Lines headed by an entry give the natural chain unless they say otherwise; changes in a name come on top.
UniProt Q8RCT7: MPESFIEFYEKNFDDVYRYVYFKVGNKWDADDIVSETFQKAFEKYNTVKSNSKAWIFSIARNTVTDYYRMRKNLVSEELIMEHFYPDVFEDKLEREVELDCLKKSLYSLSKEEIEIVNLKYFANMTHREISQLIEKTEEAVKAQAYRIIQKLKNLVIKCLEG
UniProt Q8RCT8: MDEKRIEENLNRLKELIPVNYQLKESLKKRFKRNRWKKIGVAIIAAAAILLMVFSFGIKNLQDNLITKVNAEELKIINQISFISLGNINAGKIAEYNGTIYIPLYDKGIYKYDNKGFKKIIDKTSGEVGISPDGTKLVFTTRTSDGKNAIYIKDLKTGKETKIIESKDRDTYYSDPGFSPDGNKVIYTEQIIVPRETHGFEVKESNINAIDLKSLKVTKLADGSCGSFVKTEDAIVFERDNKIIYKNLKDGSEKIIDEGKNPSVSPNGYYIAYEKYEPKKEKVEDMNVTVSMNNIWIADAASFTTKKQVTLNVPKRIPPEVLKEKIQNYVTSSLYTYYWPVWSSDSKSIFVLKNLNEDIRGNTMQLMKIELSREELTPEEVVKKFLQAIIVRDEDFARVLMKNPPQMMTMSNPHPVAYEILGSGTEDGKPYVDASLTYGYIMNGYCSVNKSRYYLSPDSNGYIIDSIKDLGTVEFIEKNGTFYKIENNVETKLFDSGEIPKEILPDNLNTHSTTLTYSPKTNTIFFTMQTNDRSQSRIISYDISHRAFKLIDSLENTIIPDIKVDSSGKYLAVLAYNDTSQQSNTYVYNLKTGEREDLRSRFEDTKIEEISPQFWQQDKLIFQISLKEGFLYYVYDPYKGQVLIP

Target: His-tagged Tt-RpoE1 (ECF sigma factor of T. tengcongensis) (Thermoanaerobacter tengcongensis) (UniProt Q8RCT7)
Test: native gel or EMSA; supershift of the complex of Tt-RpoE1 with 32P-labelled fork-junction promoter DNA (T+1/B-10); each protein 5 µM (equimolar); 25°C, 20 min; 50 mM Tris-HCl pH 8.0, 10 mM MgAc2, 30 mM NaCl, 1 mM DTT, 5% glycerol, 30 µg/ml BSA, 0.5 mM EDTA, poly(dI-dC); native 5% polyacrylamide gel; both purified

His-tagged Tt-TolB (anti-sigma factor of Tt-RpoE1) (from UniProt Q8RCT8)
binding: binds
